# From patent US11103504B2, “Combination of a DNA condensation-inducing compound and an Eis inhibitor for antibiotic treatment” (priority 2018, dated 2021)
# At least one compound was matched to its structure with a doubt left.
# Tested on: M. tuberculosis mc^26030
# Assay: DNA-condensation incidence by fluorescence microscopy
# Format: cell-based, Mycobacterium tuberculosis
smiles,measurement,setting,value
CO[C@H]1/C=C/O[C@@]2(C)Oc3c(C)c(O)c4c(O)c(c(/C=N/N5CCN(C)CC5)c(O)c4c3C2=O)NC(=O)/C(C)=C\C=C\[C@H](C)[C@H](O)[C@@H](C)[C@@H](O)[C@@H](C)[C@H](OC(C)=O)[C@@H]1C [rifampicin],fraction of bacilli with condensed DNA,"20 times the MIC50, 1 hour, vs control, P<0.05, FIG. 2D",increased the percentage bacteria with condensed DNA significantly
same,induction of condensation of the DNA,summary statement,can induce condensation of the DNA
